Test results published in paper PMC12350179.
Results are given in words; binding and its absence hold for the method and conditions named. Binding seen in cells or lysates may run through a third protein. Some binding calls cover weakened binding; strength is not graded here. Where a sequence is shown, tags or fusion partners need not be part of it.

Sequences of proteins named here, by UniProt entry; tags and fusion partners are left off. A change or cut given only in a name is not applied to a line headed by its entry.
UniProt Q13283: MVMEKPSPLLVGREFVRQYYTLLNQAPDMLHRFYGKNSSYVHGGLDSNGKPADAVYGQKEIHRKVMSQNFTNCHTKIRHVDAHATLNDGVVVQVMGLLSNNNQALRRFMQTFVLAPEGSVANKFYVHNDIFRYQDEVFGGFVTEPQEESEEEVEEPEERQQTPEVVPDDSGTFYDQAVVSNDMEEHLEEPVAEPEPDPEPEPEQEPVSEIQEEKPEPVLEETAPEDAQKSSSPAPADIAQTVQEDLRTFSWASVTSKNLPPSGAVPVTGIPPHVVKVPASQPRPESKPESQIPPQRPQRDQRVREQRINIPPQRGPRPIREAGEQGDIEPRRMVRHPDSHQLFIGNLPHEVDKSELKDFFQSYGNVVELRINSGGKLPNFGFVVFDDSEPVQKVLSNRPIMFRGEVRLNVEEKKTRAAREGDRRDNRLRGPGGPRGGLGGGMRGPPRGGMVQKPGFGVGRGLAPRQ

Key:
[1] = target: T1, 3×Flag-NCOA7 (human) (UniProt Q8NI08); assay: co-IP; HEK293T cells co-transfected with 4 µg of each plasmid, lysed after 48 h, Flag beads used for the immunoprecipitation, SDS-PAGE and blot
T1 sequence: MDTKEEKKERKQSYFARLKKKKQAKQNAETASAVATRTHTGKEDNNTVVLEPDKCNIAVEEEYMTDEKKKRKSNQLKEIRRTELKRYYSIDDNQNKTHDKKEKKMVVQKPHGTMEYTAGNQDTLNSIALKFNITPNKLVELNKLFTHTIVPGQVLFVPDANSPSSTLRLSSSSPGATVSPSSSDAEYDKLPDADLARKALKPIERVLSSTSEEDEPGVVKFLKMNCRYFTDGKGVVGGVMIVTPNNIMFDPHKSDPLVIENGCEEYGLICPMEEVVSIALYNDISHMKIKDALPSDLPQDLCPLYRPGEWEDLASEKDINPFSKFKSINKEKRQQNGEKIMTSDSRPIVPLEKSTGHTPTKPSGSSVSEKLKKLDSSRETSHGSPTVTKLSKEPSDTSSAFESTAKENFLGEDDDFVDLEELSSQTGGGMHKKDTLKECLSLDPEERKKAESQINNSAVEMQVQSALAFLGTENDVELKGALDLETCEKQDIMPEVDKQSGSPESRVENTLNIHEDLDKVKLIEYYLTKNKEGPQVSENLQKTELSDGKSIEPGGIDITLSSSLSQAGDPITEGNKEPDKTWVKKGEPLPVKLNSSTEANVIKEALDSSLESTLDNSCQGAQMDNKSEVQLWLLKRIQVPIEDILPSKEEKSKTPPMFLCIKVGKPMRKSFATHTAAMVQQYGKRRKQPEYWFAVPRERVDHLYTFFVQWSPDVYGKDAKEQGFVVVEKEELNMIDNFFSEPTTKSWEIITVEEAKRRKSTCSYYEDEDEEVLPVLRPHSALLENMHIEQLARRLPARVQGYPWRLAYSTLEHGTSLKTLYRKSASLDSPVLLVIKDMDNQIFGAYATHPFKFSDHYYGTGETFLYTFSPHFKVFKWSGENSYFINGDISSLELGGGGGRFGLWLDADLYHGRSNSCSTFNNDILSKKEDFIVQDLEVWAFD

[2] = target: T2, Flag-NCOA7-ΔTLDc (lacking amino acids 780–942) (human) (UniProt Q8NI08); assay: as above
T2 sequence: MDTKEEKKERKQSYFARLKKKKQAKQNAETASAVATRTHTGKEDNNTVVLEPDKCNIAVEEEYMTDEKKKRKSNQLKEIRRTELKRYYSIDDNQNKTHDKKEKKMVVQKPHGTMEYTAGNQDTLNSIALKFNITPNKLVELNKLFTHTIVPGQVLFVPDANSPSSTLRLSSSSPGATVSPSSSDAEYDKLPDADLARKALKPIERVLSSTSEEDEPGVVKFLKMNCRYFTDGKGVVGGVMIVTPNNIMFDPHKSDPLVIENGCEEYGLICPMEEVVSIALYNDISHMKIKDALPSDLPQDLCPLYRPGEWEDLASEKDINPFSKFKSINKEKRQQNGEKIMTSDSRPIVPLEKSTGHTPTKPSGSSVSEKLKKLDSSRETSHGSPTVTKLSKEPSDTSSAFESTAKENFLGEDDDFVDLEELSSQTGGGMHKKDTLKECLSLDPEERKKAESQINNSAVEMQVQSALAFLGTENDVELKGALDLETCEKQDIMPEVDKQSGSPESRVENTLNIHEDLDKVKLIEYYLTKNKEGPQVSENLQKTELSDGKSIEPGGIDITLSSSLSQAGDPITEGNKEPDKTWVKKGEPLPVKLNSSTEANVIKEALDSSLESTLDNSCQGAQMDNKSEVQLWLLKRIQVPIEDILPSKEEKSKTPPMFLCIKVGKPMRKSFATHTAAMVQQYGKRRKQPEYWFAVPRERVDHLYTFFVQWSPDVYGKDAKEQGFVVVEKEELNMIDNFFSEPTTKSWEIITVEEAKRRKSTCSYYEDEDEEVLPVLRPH

binding [1]	binding [2]	Substance
no binding		HA-G3BP1-ΔNTF2L (lacking amino acids 1–139) (from UniProt Q13283 140-466) (domain or fragment)
binds	binds	HA–G3BP1 (from UniProt Q13283 1-466)
